Experimental data as given in the supplement of paper PMC3741180, “A Novel High Throughput Biochemical Assay to Evaluate the HuR Protein-RNA Complex Formation” (PLoS ONE, 2013).
Several values for one entry are separate records, joined by “and”; a condition that tells them apart may be missing. Equal entries are not always repeated. Some of the results follow. Repeats in this data set agree poorly, so a single value says little. Numbered stars: 1 amine (or outer) side, 2 acyl side, 3 side chain; on linkers, the order of the positions; unused ones are H or OH. Bridge positions count the residues as written; N and C are the ends. Square brackets hold non-standard residues; d marks the D form. Peptide text beside a SMILES is read from it. I, II: the chains in the order shown. Actinocin(9to1) = Cc1c2oc3c(C)ccc(C(=O)[*:1])c3nc-2c(C(=O)[*:2])c(N)c1=O; NMeV = CN[C@H](C(=O)O)C(C)C; Sar = CNCC(=O)O

Chains of the proteins cited; added tags and fusions are not shown.
UniProt Q15717, whole entry: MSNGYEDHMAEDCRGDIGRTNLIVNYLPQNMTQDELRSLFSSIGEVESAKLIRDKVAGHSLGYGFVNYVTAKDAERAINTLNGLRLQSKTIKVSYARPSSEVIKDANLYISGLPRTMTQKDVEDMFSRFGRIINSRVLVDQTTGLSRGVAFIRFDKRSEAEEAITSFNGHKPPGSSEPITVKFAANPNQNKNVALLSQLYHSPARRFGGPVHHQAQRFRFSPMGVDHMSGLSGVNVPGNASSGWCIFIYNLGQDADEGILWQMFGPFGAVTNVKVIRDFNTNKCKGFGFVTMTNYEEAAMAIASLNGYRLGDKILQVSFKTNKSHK

Target: HuR (ELAVL1) - TNFalpha ARE RNA complex (UniProt Q15717)
Assay: AlphaScreen HuR-RNA complex signal Z-score relative to positive (Bi-TNF, DMSO) controls (Z-score (SD units of positive control)); higher = more complex signal
Conditions: screen stage: primary screen; compound concentration: 25 nM

Structure (SMILES) | AlphaScreen HuR-RNA complex signal Z-score
S=c1[nH]cnc2nc[nH]c12 | -4.74
COc1cc2c(cc1OC)[C@@H]1C(=O)c3ccc4c(c3O[C@@H]1CO2)C=CC(C)(C)O4 | 0.907
CC(=O)/C=C\[C@@H]1[C@@]2(C)CCCC(C)(C)C2CC[C@@]1(C)O (stereo partly specified) | 2.31
Cc1c(C)c2c(c(C)c1O)CCC(C)(CCCC(C)CCCC(C)CCCC(C)C)O2 (stereo not drawn) [alpha-TOCHOPHEROL] | 0.315
CC(=O)O[C@]1(C(C)=O)CC[C@H]2[C@@H]3C=C(C)C4=CC(=O)CC[C@]4(C)[C@H]3CC[C@@]21C | 2.3
NC[C@H]1O[C@H](O[C@H]2[C@H](O)[C@@H](O[C@H]3O[C@H](CO)[C@@H](O)[C@H](N)[C@H]3O)[C@H](N)C[C@@H]2N)[C@H](N)[C@@H](O)[C@@H]1O | -0.118
Nc1nnc(-c2cccc(Cl)c2Cl)c(N)n1 | -4.08
O=C(O)/C=C(\CC(=O)O)C(=O)O | 3.16
Nc1nc(=O)[nH]cc1F | 0.794
OCC(O)C(O)C(O)CO (stereo unspecified) | 1.73 and 1.91
CC1CCC2(OC1)OC1CC3C4CCC5C[C@@H](O)CCC5(C)C4=CCC3(C)C1[C@@H]2C (stereo partly drawn) [3beta-HYDROXYISOALLOSPIROST-9(11)-ENE] | 1.45
CCC(C)C(=O)OC1[C@@H]2CC3=C4CC(=O)O[C@@H](c5ccoc5)[C@]4(C)CCC3[C@@](C)(C2=O)[C@@H](CC(=O)OC)C1(C)C (stereo partly specified) | 0.0171
CC[C@H](C)C(=O)O[C@H]1C[C@H](O)C=C2C=C[C@H](C)[C@H](CC[C@@H](O)C[C@@H](O)CC(=O)O)[C@H]21 | 1.75
CC1=C(C(=O)O)N2C(=O)[C@@H](NC(=O)[C@H](N)c3ccccc3)[C@H]2SC1 | 1.51
CC(C)(C)NCC(O)COc1cccc2c1CC(O)C(O)C2 (stereo unspecified) | 0.124
CN(C)CC(=O)OC[C@@H](O)[C@@H](O)[C@H](O)[C@@H](O)C(=O)O | 0.562
Cc1cc(O)cc(O)c1C(=O)O | 2.26
COc1ccc2cc3[n+](cc2c1OC)CCc1cc2c(cc1-3)OCO2 | 0.89
COc1ccc2c(c1)OC[C@@H](Cc1ccc(OC)c(OC)c1)[C@@H]2O | 1.56
COC(=O)C[C@H]1C(C)(C)C(=O)[C@@H]2CC3C4=CC(=O)O[C@@H](c5ccoc5)[C@]4(C)CC[C@@H]3[C@@]1(C)C2=O (stereo partly specified) | -0.0269
CC(C)=CC1C(C(=O)O)C1(C)C (stereo unspecified) | 0.876
CC(C)Cn1c(=O)n(C)c(=O)c2nc[nH]c21 | 1.28
O=C1C(O)=C(O)C(=O)C(O)=C1O | 0.261
Cc1c2oc3c(C)ccc(C(=O)N[C@@H]4C(=O)N[C@H](C(C)C)C(=O)N5CCC[C@H]5C(=O)N(C)CC(=O)N(C)[C@@H](C(C)C)C(=O)O[C@@H]4C)c3nc-2c(C(=O)N[C@@H]2C(=O)N[C@H](C(C)C)C(=O)N3CCC[C@H]3C(=O)N(C)CC(=O)N(C)[C@@H](C(C)C)C(=O)O[C@@H]2C)c(N)c1=O (I: T[dV]P[Sar][NMeV] / II: T[dV]P[Sar][NMeV]; ester I:1-I:C, II:1-II:C; linker I:N-II:N via Actinocin(9to1)) | 0.332

Structure (SMILES) | AlphaScreen HuR-RNA complex signal Z-score
COc1ccc2c(c1)c(CC(=O)OCC(=O)O)c(C)n2C(=O)c1ccc(Cl)cc1 | 1.65
COCCCOc1cc(C[C@@H](C[C@H](N)[C@@H](O)C[C@H](C(=O)NCC(C)(C)C(N)=O)C(C)C)C(C)C)ccc1OC | -0.11
C#C[C@]1(OC(C)=O)CC[C@H]2[C@@H]3CCC4=CC(=O)CC[C@@H]4[C@H]3CC[C@@]21C | 1.69
CCCCOC(=O)c1ccc(O)cc1 | 2.72
CC(=O)/N=c1/sc(S(N)(=O)=O)nn1C | 1.58
CC1=CC(=O)c2ccccc2C1=O | 0.382
COc1ccc(-c2cc(=O)c3c(O)c(OC)c(OC)c(OC)c3o2)cc1OC | -0.606
N=C(N)N1CCc2ccccc2C1 | 1.29
CCCCC1C(=O)N(c2ccccc2)N(c2ccccc2)C1=O | 1.13
O=C(O)/C=C/C=C/c1ccccc1 | 4.14
Cc1ccc(C(=O)C(C)CN2CCCCC2)cc1 (stereo unspecified) | 0.984
CNCC[C@@H](Oc1ccccc1C)c1ccccc1 | -0.651
COc1cc(C(C)=O)cc(OC)c1O | 1.98
CC(C)=CCC/C(C)=C\CO | 2.12
COCCCOc1ccnc(C[S+]([O-])c2nc3ccccc3[nH]2)c1C (stereo unspecified) | -0.402
C#CC1(O)CC[C@H]2[C@@H]3CCC4=CC(=O)CC[C@@H]4[C@H]3CC[C@@]21CC (mixture of isomers) | 2.48
COc1cc(O)c(C(=O)/C=C/c2ccc(O)c(OC)c2)c(OC)c1 | 1.08
CC(=O)OCC(=O)[C@@]12OC3(CCCC3)O[C@@H]1C[C@H]1[C@@H]3CCC4=CC(=O)C=C[C@]4(C)[C@@]3(F)[C@@H](O)C[C@@]12C | 1
COc1cc2c(cc1OC)Cc1cc(OC)c(OC)cc1Cc1cc(OC)c(OC)cc1C2 | 2.45
N[C@@H](CC(=O)N1CCn2c(nnc2C(F)(F)F)C1)Cc1cc(F)c(F)cc1F | 2.73
C[C@@H]1O[C@@H](O[C@H]2[C@H](Oc3cc(O)c4c(c3)O[C@H](c3ccc(O)cc3)CC4=O)O[C@H](CO)[C@@H](O)[C@@H]2O)[C@H](O)[C@H](O)[C@H]1O | 0.0824
O=C(Nc1ccccc1)OCC(CN1CCCCC1)OC(=O)Nc1ccccc1 (stereo unspecified) | -0.699
COc1c(O)cc(O)cc1O | 1.2
C[C@@H]1O[C@@H](OC[C@H]2O[C@@H](Oc3c(-c4ccc(O)c(O)c4)oc4cc(O)cc(O)c4c3=O)[C@H](O)[C@@H](O)[C@@H]2O)[C@H](O)[C@H](O)[C@H]1O [RUTOSIDE  (rutin)] | 0.112

Already shown: entries from further up.
Structure (SMILES) | AlphaScreen HuR-RNA complex signal Z-score
COc1cc(O)c(C(=O)/C=C/c2ccc(O)c(OC)c2)c(OC)c1 | 1.08
CC(=O)OCC(=O)[C@@]12OC3(CCCC3)O[C@@H]1C[C@H]1[C@@H]3CCC4=CC(=O)C=C[C@]4(C)[C@@]3(F)[C@@H](O)C[C@@]12C | 1

Additional compounds follow.

Structure (SMILES) | AlphaScreen HuR-RNA complex signal Z-score
CCCC(=O)Nc1ccc(OCC(O)CNC(C)C)c(C(C)=O)c1 (stereo unspecified) | -3.05
CC(=O)Nc1ccc(OCC(O)CNC(C)C)cc1 (stereo unspecified) | 2.77
CN1[C@@H]2CC[C@H]1C[C@@H](OC(c1ccccc1)c1ccccc1)C2 | 0.456
C=CCc1ccccc1OCC(O)CNC(C)C (stereo unspecified) | 3.42
NC[C@H]1CC[C@H](C(=O)O)CC1 | 1.53
Oc1c(Cl)cc(Cl)cc1Sc1cc(Cl)cc(Cl)c1O | 0.312
CC(=O)OC(C)C[N+](C)(C)C (stereo unspecified) | 0.387
CCCCOc1ccc(CC(=O)NO)cc1 | 2.77
CCCCC[C@H](CC(=O)NO)C(=O)N[C@H](C(=O)N1CCC[C@H]1CO)C(C)C | 2.75
Cc1ccc(O)c([C@H](CCN(C(C)C)C(C)C)c2ccccc2)c1 | 0.37
Nc1nc(=O)c2c([nH]1)NCC(CNc1ccc(C(=O)N[C@@H](CCC(=O)O)C(=O)O)cc1)N2C=O (stereo partly specified) | 1.55
O=C(O)c1cc(=O)c2c(OCC(O)COc3cccc4oc(C(=O)O)cc(=O)c34)cccc2o1 | -5.05
O=C(O)/C=C/C=C/c1ccc2c(c1)OCO2 | -0.361
CCCCCC1C(=O)CCC1CC(=O)O (stereo unspecified) | 0.963
CC(C)CCC[C@@H](C)[C@H]1CC[C@H]2[C@@H]3CC=C4C[C@@H](O)CC[C@]4(C)[C@H]3CC[C@]12C | -0.228
Nc1ccn([C@@H]2O[C@H](CO)[C@@H](O)[C@H]2O)c(=O)n1 | 0.765
CN(C)CCC(c1ccccc1)c1ccccn1 (stereo unspecified) | 2.09
C=CC(C1=CC(=O)C(OC)=CC1=O)c1ccc(O)cc1 (stereo unspecified) | -4.91
O=P(O)(O)C(O)(Cc1cccnc1)P(=O)(O)O | 0.582
O=C(O)c1cc(O)c(O)c(O)c1 | 0.212
CCN(CC)C(=O)N1CCN(C)CC1 | -2.9
CC[C@]1(O)C[C@@H]2CN(CCc3c([nH]c4ccccc34)[C@@](C(=O)OC)(c3cc4c(cc3OC)N(C)[C@H]3[C@@](O)(C(=O)OC)[C@H](OC(C)=O)[C@]5(CC)C=CCN6CC[C@]43[C@@H]65)C2)C1 | -1.46
C[C@H]1CC[C@@H](C(C)(C)O)CC2=C1CC[C@@H]2C | 1.08
CCN(CCCc1ccccc1)CCCc1ccccc1 | 0.315

Quoted at random: 3 compounds from above, in no set order.
Structure (SMILES) | AlphaScreen HuR-RNA complex signal Z-score
C[C@H]1CC[C@@H](C(C)(C)O)CC2=C1CC[C@@H]2C | 1.08
O=P(O)(O)C(O)(Cc1cccnc1)P(=O)(O)O | 0.582
CC(C)CCC[C@@H](C)[C@H]1CC[C@H]2[C@@H]3CC=C4C[C@@H](O)CC[C@]4(C)[C@H]3CC[C@]12C | -0.228

The results go on.

Structure (SMILES) | AlphaScreen HuR-RNA complex signal Z-score
CCCCC(CC)COC(=O)c1ccccc1O (stereo unspecified) | 0.584
CC(=O)[C@H]1CC[C@H]2[C@@H]3CC=C4C[C@@H](OC(=O)CCC(=O)O)CC[C@]4(C)[C@H]3CC[C@]12C | -0.429
Clc1ccc(COC(Cn2ccnc2)c2ccc(Cl)cc2Cl)cc1 (stereo unspecified) | 1.34
Clc1ccccc1C(c1ccccc1)(c1ccccc1)n1ccnc1 | -6.14
NC(=O)NO | -1.19
CO/N=C1\CN(c2nc3c(cc2F)c(=O)c(C(=O)O)cn3C2CC2)CC1CN (stereo unspecified) | 1.78
CC(C)=CCC/C(C)=C/COc1ccc2ccc(=O)oc2c1 | 1.53
COc1c(OC)c2occc2c2oc(=O)ccc12 | 0.639
CN1CCC[C@H]1c1cccnc1 | 5.66
CCCC(C(=O)OCCN(CC)CC)(c1ccccc1)c1ccccc1 | 0.765
C[C@@H]1CC2C3C[C@H](F)C4=CC(=O)C=C[C@]4(C)[C@@]3(F)[C@@H](O)C[C@]2(C)[C@@]1(O)C(=O)COC(=O)C(C)(C)C (stereo partly specified) | -2.68
Cn1c(=O)c2c(ncn2CC(O)CO)n(C)c1=O (stereo unspecified) | -2.5
NC(=O)c1cccnc1 | 0.477
CNC1(C)C2CCC(C2)C1(C)C (stereo unspecified) | 0.767
NC(=O)C1(N2CCCCC2)CCN(CCCC(=O)c2ccc(F)cc2)CC1 | -2.96
CCCCCCCCCCCCCCCC[N+](C)(C)C | 1.68
CC1=C(C(=O)O)N2C(=O)[C@@H](NC(=O)[C@H](N)c3ccc(O)cc3)[C@H]2SC1 | -1.9
OC[C@H]1O[C@@H](O[C@H]2[C@H](O)[C@@H](O)[C@@H](O)O[C@@H]2CO)[C@H](O)[C@@H](O)[C@@H]1O | 0.0804
CC1=CCCC(C)=CCC(C)(C)C=CC1 [HUMULENE (alpha)] | 2.55
COc1cc(C)c2c(=O)cc(-c3ccccc3)oc2c1 | 2.44
CCOc1nc2cccc(C(=O)OC(C)OC(=O)OC3CCCCC3)c2n1Cc1ccc(-c2ccccc2-c2nn[nH]n2)cc1 (stereo unspecified) | -7.87
Nc1ccc(S(N)(=O)=O)cc1 | -0.558
Nc1ncnc2c1ncn2[C@H]1C[C@H](O)[C@@H](CO)O1 | 0.571
O=C(O)/C=C/c1ccccc1 | 1.17
